The other results are listed elsewhere or left out. Many values rest on one well or one pass, so single values are uncertain.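 Cells were imaged in 1,536-well plates, and nuclei stained with an antibody against cleaved PARP were counted against all DNA-stained nuclei to give the apoptosis fraction. Screening doses were chosen to leave most cells alive, and resting and induced cleaved-PARP levels differ strongly between cell lines.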
Each molecule was assayed on WM3619 (assay: cleaved PARP positive nuclei fraction relative to DMSO control; melanoma cells; higher = more apoptosis). Conditions: library dose: low library concentration; 72 h.

Row | SMILES | cleaved PARP positive nuclei fraction [%]
1 | OCc1c[nH]c2ccccc12 [Indole-3-carbinol] + COCC[n+]1c2c(n(Cc3cnccn3)c1C)C(=O)c1ccccc1C2=O [YM155] (first compound 0.8 µM, partner dose 0.0004 µM) | 92.2
2 | Clc1ccc(Nc2nnc(Cc3ccncc3)c3ccccc23)cc1 [vatalanib] + C=CCn1c(=O)c2cnc(Nc3ccc(N4CCN(C)CC4)cc3)nc2n1-c1cccc(C(C)(C)O)n1 [MK1775] (first compound 2 µM, partner dose 0.02 µM) | 124
3 | C#Cc1cccc(Nc2ncnc3cc(OCCOC)c(OCCOC)cc23)c1 [erlotinib] + COCC[n+]1c2c(n(Cc3cnccn3)c1C)C(=O)c1ccccc1C2=O [YM155] (first compound 0.8 µM, partner dose 0.0004 µM) | 108
4 | Cc1nc(Nc2ncc(C(=O)Nc3c(C)cccc3Cl)s2)cc(N2CCN(CCO)CC2)n1 [dasatanib] + Cn1c(Nc2ccc(C(F)(F)F)cc2)nc2cc(Oc3ccnc(-c4ncc(C(F)(F)F)[nH]4)c3)ccc21 [CHIR265] (first compound 0.004 µM, partner dose 0.08 µM) | 126
5 | CC(C)(C)c1cnc(CSc2cnc(NC(=O)C3CCNCC3)s2)o1 + Cc1cc(N2CCOCC2)cc2[nH]c(-c3c(NC[C@@H](O)c4cccc(Cl)c4)cc[nH]c3=O)nc12 [BMS536924] (first compound 0.01 µM, partner dose 0.2 µM) | 87.3
6 | OCc1c[nH]c2ccccc12 [Indole-3-carbinol] + Nc1cccc2c1CN(C1CCC(=O)NC1=O)C2=O [lenalidomide] (first compound 0.8 µM, partner dose 1 µM) | 201

An excerpt of these results, with tabs.
Row	SMILES	cleaved PARP positive nuclei fraction [%]
4	Cc1nc(Nc2ncc(C(=O)Nc3c(C)cccc3Cl)s2)cc(N2CCN(CCO)CC2)n1 [dasatanib] + Cn1c(Nc2ccc(C(F)(F)F)cc2)nc2cc(Oc3ccnc(-c4ncc(C(F)(F)F)[nH]4)c3)ccc21 [CHIR265] (first compound 0.004 µM, partner dose 0.08 µM)	126
5	CC(C)(C)c1cnc(CSc2cnc(NC(=O)C3CCNCC3)s2)o1 + Cc1cc(N2CCOCC2)cc2[nH]c(-c3c(NC[C@@H](O)c4cccc(Cl)c4)cc[nH]c3=O)nc12 [BMS536924] (first compound 0.01 µM, partner dose 0.2 µM)	87.3

— the supplement of paper PMC4604168 (melanoma cell lines)
